From publication PMC12463132 (Advanced Science, 2025)
No constants are given. Whether binding was seen depends on the method and setting. Some entries that bind do so weakly or less than the wild type.

By UniProt entry, the sequences of proteins in these tests, tags left out. Residues count along the entry.
UniProt Q86WV6, residues 335-379: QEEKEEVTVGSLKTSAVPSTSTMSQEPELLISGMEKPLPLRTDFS

Biological target: GST‐tagged human STING CTT (residue number: 335–379), phosphorylated (human) (UniProt Q86WV6)
Assay: pull-down; competition: phosphorylated GST-STING CTT on glutathione Sepharose 4B beads, IRF3 with Sec24; 20 mM HEPES-Na pH 7.4, 200 mM NaCl, 4 mM DTT, 0.1% Triton X-100, 4 °C; SDS-PAGE; both purified

B1: IRF3 (protein, UniProt Q14653 1-427)
chain: MGTPKPRILPWLVSQLDLGQLEGVAWVNKSRTRFRIPWKHGLRQDAQQEDFGIFQAWAEATGAYVPGRDKPDLPTWKRNFRSALNRKEGLRLAEDRSKDPHDPHKIYEFVNSGVGDFSQPDTSPDTNGGGSTSDTQEDILDELLGNMVLAPLPDPGPPSLAVAPEPCPQPLRSPSLDNPTPFPNLGPSENPLKRLLVPGEEWEFEVTAFYRGRQVFQQTISCPEGLRLVGSEVGDRTLPGWPVTLPDPGMSLTDRGVMSYVRHVLSCLGGGLALWRAGQWLWAQRLGHCHTYWAVSEELLPNSGHGPDGEVPKDKEGGVFDLGPFIVDLITFTEGSGRSPRYALWFCVGESWPQDQPWTKRLVMVKVVPTCLRALVEMARVGGASSLENTVDLHISNSHPLSLTSDQYKAYLQDLVEGMDFQGPGES
**Q.** Which binding does the source give for B1 here?
**A.** binds
